Here are results for two molecules from article PMC11192845.

For one assay, the target named is T1, CTDNEP1-Myc-FLAG (human) (UniProt O95476).
T1 sequence: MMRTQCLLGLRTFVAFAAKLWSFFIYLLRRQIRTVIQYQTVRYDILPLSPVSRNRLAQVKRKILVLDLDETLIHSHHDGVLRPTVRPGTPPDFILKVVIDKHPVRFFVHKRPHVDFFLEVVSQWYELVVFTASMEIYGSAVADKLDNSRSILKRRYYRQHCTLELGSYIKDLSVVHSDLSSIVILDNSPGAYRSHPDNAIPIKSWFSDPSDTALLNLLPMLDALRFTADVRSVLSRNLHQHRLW
Nature of the assay: co-IP; epitope-tagged TMEM255A and epitope-tagged CTDNEP1 co-expressed from cDNAs (reconstitution experiments); immunoprecipitation and immunoblot; conditions not described. (In general: A western blot detects proteins with antibodies after separation by electrophoresis.)

In another assay the target is T2, HA-CTDNEP1 (human) (UniProt O95476).
T2 sequence: T1 sequence
Described as above.

No constants are given. Whether binding was seen depends on the method and setting. In cells and extracts the contact can be indirect. Some results given as binding are weak or reduced against the parent protein; the word gives no strength. Where a sequence is shown, tags or fusion partners need not be part of it.

B1: HA-TMEM255A (protein, UniProt Q5JRV8 1-349)
chain: MHQSLTQQRSSDMSLPDSMGAFNRRKRNSIYVTVTLLIVSVLILTVGLAATTRTQNVTVGGYYPGVILGFGSFLGIIGSNLIENKRQMLVASIVFISFGVIAAFCCAIVDGVFAARHIDLKPLYANRCHYVPKTSQKEAEEVISSSTKNSPSTRVMRNLTQAAREVNCPHLSREFCTPRIRGNTCFCCDLYNCGNRVEITGGYYEYIDVSSCQDIIHLYHLLWSATILNIVGLFLGIITAAVLGGFKDMNPTLPALNCSVENTHPTVSYYAHPQVASYNTYYHSPPHLPPYSAYDFQHSGVFPSSPPSGLSDEPQSASPSPSYMWSSSAPPRYSPPYYPPFEKPPPYSP
Take B1: the binding entry with CTDNEP1-Myc-FLAG (human) is “binds”.

B2: TMEM255A-Myc-FLAG (protein, UniProt Q5JRV8 1-349)
chain: B1 chain
Consider B2, for which, in the assay with HA-CTDNEP1 (human), the binding entry is given as “binds”.
